Test results published in PMC7819943, “Rice protein-binding microarrays: a tool to detect cis-acting elements near promoter regions in rice”.
This is one part of the list.

Biological target: T1, OsSMF1 (Oryza sativa, UniProt Q6ZLB0 1-436)
T1 sequence: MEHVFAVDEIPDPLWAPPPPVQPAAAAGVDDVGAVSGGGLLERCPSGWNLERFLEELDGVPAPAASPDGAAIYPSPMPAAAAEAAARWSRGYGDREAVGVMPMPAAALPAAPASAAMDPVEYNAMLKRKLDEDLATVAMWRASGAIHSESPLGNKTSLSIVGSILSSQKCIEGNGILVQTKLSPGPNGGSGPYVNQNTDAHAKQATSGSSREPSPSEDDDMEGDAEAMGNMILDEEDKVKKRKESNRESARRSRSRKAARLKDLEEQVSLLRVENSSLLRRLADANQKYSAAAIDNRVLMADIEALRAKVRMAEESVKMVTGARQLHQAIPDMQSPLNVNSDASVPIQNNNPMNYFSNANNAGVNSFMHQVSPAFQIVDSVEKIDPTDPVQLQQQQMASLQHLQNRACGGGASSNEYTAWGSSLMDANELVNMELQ
Assay: protein-binding microarray (RPBM); PBS, 2% BSA, 51.3 ng/ul salmon testes DNA, 50 uM zinc acetate, 200 nM TF, 25 C, 1 h; high values mean tight binding
Settings: protein: recombinant; tags: N-terminal polyhistidine and DsRed monomer fusion (pET32a); chain copies: 2; label: CyDye5-dUTP incorporated in the synthesized complementary strand; 3' TTTTT single-stranded linker to array surface; dsDNA, one strand shown
Outline: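 The binding signal is fluorescence intensity per array feature (arbitrary units). Readings came from an Axon 4000B scanner after a washed, 2% BSA-blocked, double-stranded custom Agilent array had been incubated for 1 h at 25 °C with 200 nM protein and 50 µM zinc acetate. The protein was a Ni–NTA-purified transcription factor fused N-terminally to polyhistidine and DsRed, expressed in E. coli BL21-CodonPlus.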

Sequence	binding signal
CTCCAACTTGTTCGGTTGTGTCACCCCGGTCTCTAAACTTCGGAGTCACCTAGTGCAG	3170 fluorescence intensity (a.u.)
CCACCGTCAGTGACTCGGCTTTGACGCACCATTCCGACCGCGGAGTCACCTAGTGCAG	6260 fluorescence intensity (a.u.)
TAAACATATATGCATGGATGATGTCATGGAAACATGGATTCGGAGTCACCTAGTGCAG	4690 fluorescence intensity (a.u.)
CGCCTCAAGCAGTGGCGATGGCGGCGGCGGTGCGGTGCGGCGGAGTCACCTAGTGCAG	3640 fluorescence intensity (a.u.)
TATGACATGTGGGCCAACTGCCAAGCAGCCTTACTTGACGCGGAGTCACCTAGTGCAG	3360 fluorescence intensity (a.u.)
TTATGGCTATTCTGATAAGCCTAATCCACGTGAGCTTGGTCGGAGTCACCTAGTGCAG	6480 fluorescence intensity (a.u.)
AACCCTGGCCGGGTAGCGTACGTCGTAGTACTTATAAGTACGGAGTCACCTAGTGCAG	37700 fluorescence intensity (a.u.)
CCTTTTCCGCTTTAAAACACCACACAGTGACACACACACCCGGAGTCACCTAGTGCAG	5500 fluorescence intensity (a.u.)
GTGAAGGAGCCGCCACGTCTGACTTTTCTTTCTTCTCTCTCGGAGTCACCTAGTGCAG	11800 fluorescence intensity (a.u.)
TCGAGGCTCGCAGCTCGAACCTTCCTGACACGGTAGCCTTCGGAGTCACCTAGTGCAG	4060 fluorescence intensity (a.u.)
CCTACCACTGTTGAGTAACCACGTCTTTCGACGTATGCAGCGGAGTCACCTAGTGCAG	6930 fluorescence intensity (a.u.)
TCCTCTCGGATTCCTCCCTCGCTGAAGCACGTGGCAGTGCCGGAGTCACCTAGTGCAG	5040 fluorescence intensity (a.u.)
AAGACCTCTCTCTCTCTCTCACTCCAAGAACTCCACGCCACGGAGTCACCTAGTGCAG	20000 fluorescence intensity (a.u.)
GCTAGCTAGCTATAGCCACCTAATTCATCGCCACGTACAACGGAGTCACCTAGTGCAG	3940 fluorescence intensity (a.u.)
GTTTCGTCTCGTAATTTACACGCAATCTGTGTAATTAGTTCGGAGTCACCTAGTGCAG	3460 fluorescence intensity (a.u.)
TAGGCTCGGCCGCCGCCGTCTCTCCCCGTCACGGGCCCGGCGGAGTCACCTAGTGCAG	3480 fluorescence intensity (a.u.)
GAAGCTGCGTGCGCGGATGCGTTGAGACGGCCACGTGGCGCGGAGTCACCTAGTGCAG	26300 fluorescence intensity (a.u.)
GTACAGATTTCTACAGCAGCCTTGTCATTCATAAACCAGTCGGAGTCACCTAGTGCAG	4090 fluorescence intensity (a.u.)
TTCCTGTCTAGCTGATGTAGTCGTACTTTGCAATTTGCATCGGAGTCACCTAGTGCAG	3480 fluorescence intensity (a.u.)
GGGAAACTCTTCCGTCACCGCCTACCTCACCTCCTCCTACCGGAGTCACCTAGTGCAG	3150 fluorescence intensity (a.u.)
ATCCAATCTGAGCCGTCCGCTGTACACCGTAGATCTATATCGGAGTCACCTAGTGCAG	3450 fluorescence intensity (a.u.)

Sequence	binding signal
GATCGATCGATCCACGCGCCCGCGCGCCACCGCCGCTGATCGGAGTCACCTAGTGCAG	3370 fluorescence intensity (a.u.)
GGTGTTTAGTTTATTACGATATATTGGTCATGTCTAAAGACGGAGTCACCTAGTGCAG	20300 fluorescence intensity (a.u.)
ATCTCCATCTCTATGTGTTACTATGTTATGCGTGTATCGTCGGAGTCACCTAGTGCAG	3990 fluorescence intensity (a.u.)
CATTCATGAGGAGAATCATTCACATCCTACACGTGTAGAGCGGAGTCACCTAGTGCAG	5210 fluorescence intensity (a.u.)
GGCTGTGGGCAGAGAGGAGTTGATGGTGACGAAGGCAGCACGGAGTCACCTAGTGCAG	4290 fluorescence intensity (a.u.)
TGCTTGAAGCGAAGTATCAGGTGTGTGTCAGTTGGGTCTCCGGAGTCACCTAGTGCAG	4890 fluorescence intensity (a.u.)
CCTCCGGTGTGATCCGATCACGCGCGGCCTCTCCGCCTCCCGGAGTCACCTAGTGCAG	3490 fluorescence intensity (a.u.)
AATATGCCGTCACCGATGCTGATGATGCGGATCTCTGGCGCGGAGTCACCTAGTGCAG	4000 fluorescence intensity (a.u.)
CCTGAATCCATGCTTATTCGGTCATGCTTATGCATGCAGTCGGAGTCACCTAGTGCAG	4490 fluorescence intensity (a.u.)
CGCTTCGTCATCTCGTCGTCGTTTGTGTTCTTGGATTGGGCGGAGTCACCTAGTGCAG	4250 fluorescence intensity (a.u.)
TGATGGAAAGTGGTGTCATGCCCACTTCTCTTGCTGGCCTCGGAGTCACCTAGTGCAG	4270 fluorescence intensity (a.u.)
GATAGATGACGTATTATTAGACAGTGATGCGCTTGTGGTGCGGAGTCACCTAGTGCAG	7250 fluorescence intensity (a.u.)
TTGAATAAACGAGGAGTTTCTGAAGTAGTGGCATGGTCTGCGGAGTCACCTAGTGCAG	15500 fluorescence intensity (a.u.)
TGAGGGGTCAGCCACTCTTTCTTCTTTGTCTTTATCAACTCGGAGTCACCTAGTGCAG	15600 fluorescence intensity (a.u.)
GGAGCGCCCATGGACGCCGCCACGACGTCCGGCCGCGCCGCGGAGTCACCTAGTGCAG	3670 fluorescence intensity (a.u.)
GGTCCTCTGCCAGGCACATGACGCTGCTATTGCTGCTTTGCGGAGTCACCTAGTGCAG	5460 fluorescence intensity (a.u.)
ATCTTGGCGTCAGTCTGGAGTGGGCTTTCCAAGCCTGGCCCGGAGTCACCTAGTGCAG	3200 fluorescence intensity (a.u.)
TCAGCCCCAGCCTCCATGCCTGTGAGAGAACAAGCCGGTTCGGAGTCACCTAGTGCAG	3530 fluorescence intensity (a.u.)
CGAGGAAATGGTGGCGTCACCTTGACCCTGGGAGAAGAGGCGGAGTCACCTAGTGCAG	8130 fluorescence intensity (a.u.)
TTCAGTTAATGCTAGTAGTTGCATTTGGTCCAATCTCACACGGAGTCACCTAGTGCAG	3220 fluorescence intensity (a.u.)
TTGCTTCAATTCTCTCTCATGTGAGTCATGACATACATTGCGGAGTCACCTAGTGCAG	10500 fluorescence intensity (a.u.)

Quoted from the listing:
Under binding signal, CCTTTTCCGCTTTAAAACACCACACAGTGACACACACACCCGGAGTCACCTAGTGCAG has the entry 5500 fluorescence intensity (a.u.)
Under binding signal, ATCTTGGCGTCAGTCTGGAGTGGGCTTTCCAAGCCTGGCCCGGAGTCACCTAGTGCAG has the entry 3200 fluorescence intensity (a.u.)

The listing continues:

Sequence	binding signal
AGCGCTCCCGGCCATTGGGAGCCACGTCAGCGGCGGCCTCCGGAGTCACCTAGTGCAG	32100 fluorescence intensity (a.u.)
TTCGTGTGCCTAGGAAAATGGTATCCAAACCCCTCAAAATCGGAGTCACCTAGTGCAG	4190 fluorescence intensity (a.u.)
CCGCACGCTGTAGCAACATCTTCCAACATTGAAAGATCCCCGGAGTCACCTAGTGCAG	22400 fluorescence intensity (a.u.)
AACGCCACGCGCGCCCCGTCACGGTGGAAATGCCCGTTCTCGGAGTCACCTAGTGCAG	7420 fluorescence intensity (a.u.)
GACGCCATCTCCCCTATTCGCTACAGCGATGTCGTGTCATCGGAGTCACCTAGTGCAG	5590 fluorescence intensity (a.u.)
GCATAGGAAGGTGACATGGCATATCCATGTGGCGATTTTGCGGAGTCACCTAGTGCAG	7280 fluorescence intensity (a.u.)
CGACGACCACTGCCGGTGTAGATGTGGATGCCTCGGACGCCGGAGTCACCTAGTGCAG	4140 fluorescence intensity (a.u.)
ACCCTCCGTCGTCATTACACGCGGACTCGTCCTCCGCCGCCGGAGTCACCTAGTGCAG	6860 fluorescence intensity (a.u.)
TCCATTGCATATAATTCAATTCATCGAAATCATGACATTTCGGAGTCACCTAGTGCAG	46400 fluorescence intensity (a.u.)
AGGGGTAGCAGCAGCAGAAACAGAAGCAGAGTGACAGGGACGGAGTCACCTAGTGCAG	3510 fluorescence intensity (a.u.)
GTGCTGTACCACGTGGCATCTCCCCTCCATGTCCCAATCACGGAGTCACCTAGTGCAG	19900 fluorescence intensity (a.u.)
CGCTACGACTGGACTGACATACTCCTCGGAACCGGTGGTGCGGAGTCACCTAGTGCAG	3490 fluorescence intensity (a.u.)
GTCTCAGATAAGACCACGTCGCTCTGCAACGTCGTAGTAGCGGAGTCACCTAGTGCAG	3470 fluorescence intensity (a.u.)
CTCCGCCTCCTCCTCCTCCCGTCCAGCCCGTATCGACGAGCGGAGTCACCTAGTGCAG	4120 fluorescence intensity (a.u.)
GGTGTGTATTGACGCACCACGTATGTCTATCTTCTTTCGTCGGAGTCACCTAGTGCAG	3820 fluorescence intensity (a.u.)
AGAATCGGTTCCTTGCAGACGTGTTCGATCTGCTGGTGCCCGGAGTCACCTAGTGCAG	6870 fluorescence intensity (a.u.)
AGTAGTATTGGCTTGGGGTGTTGCCACGTCATCACCTGGTCGGAGTCACCTAGTGCAG	55000 fluorescence intensity (a.u.)
GTTCGAGGGTGTATGTTGCACAAAGCGAAGAGTTAAGGGGCGGAGTCACCTAGTGCAG	8580 fluorescence intensity (a.u.)
TTCGTCTTCTTGCTCGGTGACTAAGCTGGGTTAGGAGAGGCGGAGTCACCTAGTGCAG	3610 fluorescence intensity (a.u.)
TATATATTGATCGATGCGCCGGAGGGCGGAGAGGTGCATGCGGAGTCACCTAGTGCAG	3640 fluorescence intensity (a.u.)
ACAAAGTTGTACCAATAATAATTTCGGATCATTATCGGATCGGAGTCACCTAGTGCAG	13400 fluorescence intensity (a.u.)

2 entries from above, as labelled records:
TATATATTGATCGATGCGCCGGAGGGCGGAGAGGTGCATGCGGAGTCACCTAGTGCAG
  binding signal = 3640 fluorescence intensity (a.u.)
ACAAAGTTGTACCAATAATAATTTCGGATCATTATCGGATCGGAGTCACCTAGTGCAG
  binding signal = 13400 fluorescence intensity (a.u.)

2 records picked at random from those above, as already listed:
Sequence	binding signal
AACGCCACGCGCGCCCCGTCACGGTGGAAATGCCCGTTCTCGGAGTCACCTAGTGCAG	7420 fluorescence intensity (a.u.)
TTCGTCTTCTTGCTCGGTGACTAAGCTGGGTTAGGAGAGGCGGAGTCACCTAGTGCAG	3610 fluorescence intensity (a.u.)

The listing continues:

Sequence	binding signal
ACCTCTCGCTCCACTCAGCCGCCGCCCCTCGCCGTCGCCGCGGAGTCACCTAGTGCAG	3520 fluorescence intensity (a.u.)
TTCTTTAGCCAGCGTTACATATGATATGAATAAAGTTACACGGAGTCACCTAGTGCAG	31200 fluorescence intensity (a.u.)
GTGCTTGATGTCGGCGCCGACGCTGGCGACGGGGTGGCCGCGGAGTCACCTAGTGCAG	15700 fluorescence intensity (a.u.)
TCATCGCCAGTCGTCACTCCGGCGACGGTGACCACCATCTCGGAGTCACCTAGTGCAG	4040 fluorescence intensity (a.u.)
AAAATGCTATGCATTTGATGCTTCCATGCAAGAAAGAGACCGGAGTCACCTAGTGCAG	37600 fluorescence intensity (a.u.)
GGCCCACCTGTCATACCTATCCTCAAACCAATCTGCCAATCGGAGTCACCTAGTGCAG	4090 fluorescence intensity (a.u.)
AGAGGGAGTGGCGGTGCCGTGCAAAGCTAGCTATACGTGGCGGAGTCACCTAGTGCAG	4300 fluorescence intensity (a.u.)
CCCAACTCTGTAGACTGTAGTCTGGACTTCCACGTCACGTCGGAGTCACCTAGTGCAG	23100 fluorescence intensity (a.u.)
GGCTAACGGACCTCCACCCAACCCACATACCCCAATCGTGCGGAGTCACCTAGTGCAG	3370 fluorescence intensity (a.u.)
ATCAGGTGCATTTCTAATACACGTAGGGCACTTAACAAAGCGGAGTCACCTAGTGCAG	3500 fluorescence intensity (a.u.)
AAGAACCCAACAGTGACTAGAGCATTGGAATTTGGAACTTCGGAGTCACCTAGTGCAG	3190 fluorescence intensity (a.u.)
TAACCAGCTTGACAGGCTCGATGTCGGCCGTGTCGTCAGCCGGAGTCACCTAGTGCAG	3960 fluorescence intensity (a.u.)
CGTTTCATGCAATCTGGCAAGAACAAAGTTTGTCATACACCGGAGTCACCTAGTGCAG	3370 fluorescence intensity (a.u.)
ACCACACCTTGTCAAAACTTCAGTAACAGCAGAAGTTACACGGAGTCACCTAGTGCAG	3140 fluorescence intensity (a.u.)
ATTAGGAGTTATTAATTGTAGTTAAAAGGCTGACACGTGGCGGAGTCACCTAGTGCAG	25300 fluorescence intensity (a.u.)
CCGGGCTACCATCGCGGCGACGAAACGTGCATCATCATCCCGGAGTCACCTAGTGCAG	3850 fluorescence intensity (a.u.)
GCGCAGGCAACCACCCCACCCTTCTTCTCGAAACCTCTTCCGGAGTCACCTAGTGCAG	3290 fluorescence intensity (a.u.)
GAACGCTCTCGCGAAACCAAACAGCGACACCGTGCAATATCGGAGTCACCTAGTGCAG	3540 fluorescence intensity (a.u.)
CATGTAACATCTTCTACCTAGAAAATGGCGAAAGACGAGACGGAGTCACCTAGTGCAG	24100 fluorescence intensity (a.u.)
TCGATCTGACGCGGATTCTGCTCATTCCAAATCGAATCCACGGAGTCACCTAGTGCAG	6070 fluorescence intensity (a.u.)
ATAGTGCCATACTATGACGCACGCAACGACGTACGTCAAACGGAGTCACCTAGTGCAG	3660 fluorescence intensity (a.u.)
